# Assay results: paper PMC9705874
# The exact form of at least one protein or probe is not confirmed. A negative result means that nothing was seen under these conditions. Protein sequences can lack the tags named with them. The comparison behind a weaker result is the experiment's own reference, which may not be listed here.
# Target: T1, LexA (Myxococcus xanthus DK1622) (UniProt Q1D406)
# T1 sequence (looked up, limits assumed): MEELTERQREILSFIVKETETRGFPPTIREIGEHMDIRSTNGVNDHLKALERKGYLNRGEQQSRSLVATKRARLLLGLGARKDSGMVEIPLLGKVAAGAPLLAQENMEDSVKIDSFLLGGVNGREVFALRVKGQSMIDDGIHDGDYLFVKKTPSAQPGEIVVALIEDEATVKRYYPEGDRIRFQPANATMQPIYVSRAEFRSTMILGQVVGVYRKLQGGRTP
# Experiment: EMSA
# Conditions: 25 mM Tris-HCl pH 7.0, 50 mM NaCl, 4% glycerol, 1 mM DTT, 32 C 20 min; 0.8% agarose gel at 4 C; recombinant protein; protein details: 6xHis (pET15b, NdeI/BamHI); label: 5' biotin
row,Sequence,binding result
1,TTTTTTGTCGGACCTGCTAGGGTGTTCAGGTACCA (double strand) [recN SOS box],no binding
2,TTTTTTGTTGACTCTACACGTCTGTTCAGGGAGAG (double strand) [lexA SOS box],binds
3,TTTTTTTCGCGTACTAAAAGCGCGTTCAGGTGAGC (double strand) [recA2 SOS box],binds
4,TTTTTTTGATTACCTGCTTGTTTGTTCAGGCGCGT (double strand) [pafBC SOS box],binds more weakly
